Source: US9269550B2, “Mass spectrometric methods for quantifying NPY 1-36 and NPY 3-36” (Georgetown University, priority 2010, dated 2016)

Assay: Free NPY in human plasma of healthy normals by HPLC-QTOF-MS
Conditions: human plasma ultrafiltrate (free peptide), healthy normal subjects, preliminary data

Substance | values (reference intervals) for healthy normals
NPY 3-36: 34-amino acid peptide fragment formed by dipeptidyl peptidase IV (DPPIV) cleavage of NPY 1-36 | 0.19 to 0.65 ng/mL
NPY 1-36: 36-amino acid peptide neurotransmitter found in the brain and autonomic nervous system | 0.23 to 0.67 ng/mL
